Experimental data published in PMC4715492.
No constants are given. Whether binding was seen depends on the method and setting. For part of these data: Binding seen in cells or lysates may run through a third protein. Some entries that bind do so weakly or less than the wild type. Each block holds one molecule with its values, some of them ahead of it.

Protein sequences, listed by entry. Tags and fused reporters are not part of them. Lines headed by an entry give the natural chain unless they say otherwise; changes in a name come on top. Chains listed by the source or under a name are the forms on record and can include a tag or linker. Residues count along the entry.
UniProt O75914: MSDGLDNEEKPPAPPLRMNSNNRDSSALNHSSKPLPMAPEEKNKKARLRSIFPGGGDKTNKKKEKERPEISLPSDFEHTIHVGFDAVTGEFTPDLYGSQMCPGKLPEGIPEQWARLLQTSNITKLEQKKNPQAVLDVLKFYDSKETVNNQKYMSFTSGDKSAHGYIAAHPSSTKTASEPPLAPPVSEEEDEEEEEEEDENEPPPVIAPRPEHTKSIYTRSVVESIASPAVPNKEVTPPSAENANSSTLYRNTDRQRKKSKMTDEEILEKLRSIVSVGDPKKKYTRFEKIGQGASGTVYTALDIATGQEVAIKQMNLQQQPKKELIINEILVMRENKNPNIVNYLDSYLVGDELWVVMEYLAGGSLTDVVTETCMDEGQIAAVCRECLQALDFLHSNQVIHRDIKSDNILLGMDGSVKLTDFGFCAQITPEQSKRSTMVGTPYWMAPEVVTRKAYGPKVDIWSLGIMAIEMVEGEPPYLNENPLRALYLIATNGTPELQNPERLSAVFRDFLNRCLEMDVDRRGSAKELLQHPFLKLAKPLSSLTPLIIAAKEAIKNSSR
UniProt Q13177: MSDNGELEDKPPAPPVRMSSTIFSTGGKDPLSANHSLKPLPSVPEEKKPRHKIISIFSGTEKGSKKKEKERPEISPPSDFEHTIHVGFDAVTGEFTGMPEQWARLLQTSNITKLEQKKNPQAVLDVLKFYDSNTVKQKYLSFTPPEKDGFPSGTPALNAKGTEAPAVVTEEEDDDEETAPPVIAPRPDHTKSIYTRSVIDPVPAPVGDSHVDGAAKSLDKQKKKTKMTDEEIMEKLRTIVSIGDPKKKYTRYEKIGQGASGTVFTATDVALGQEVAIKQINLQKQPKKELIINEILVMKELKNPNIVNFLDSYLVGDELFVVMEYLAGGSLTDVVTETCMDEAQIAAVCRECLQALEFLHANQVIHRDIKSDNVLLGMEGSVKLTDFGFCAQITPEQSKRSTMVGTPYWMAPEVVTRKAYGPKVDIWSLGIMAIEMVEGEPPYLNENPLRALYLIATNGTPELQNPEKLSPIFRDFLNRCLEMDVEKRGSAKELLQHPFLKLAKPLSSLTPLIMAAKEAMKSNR
UniProt Q5S007: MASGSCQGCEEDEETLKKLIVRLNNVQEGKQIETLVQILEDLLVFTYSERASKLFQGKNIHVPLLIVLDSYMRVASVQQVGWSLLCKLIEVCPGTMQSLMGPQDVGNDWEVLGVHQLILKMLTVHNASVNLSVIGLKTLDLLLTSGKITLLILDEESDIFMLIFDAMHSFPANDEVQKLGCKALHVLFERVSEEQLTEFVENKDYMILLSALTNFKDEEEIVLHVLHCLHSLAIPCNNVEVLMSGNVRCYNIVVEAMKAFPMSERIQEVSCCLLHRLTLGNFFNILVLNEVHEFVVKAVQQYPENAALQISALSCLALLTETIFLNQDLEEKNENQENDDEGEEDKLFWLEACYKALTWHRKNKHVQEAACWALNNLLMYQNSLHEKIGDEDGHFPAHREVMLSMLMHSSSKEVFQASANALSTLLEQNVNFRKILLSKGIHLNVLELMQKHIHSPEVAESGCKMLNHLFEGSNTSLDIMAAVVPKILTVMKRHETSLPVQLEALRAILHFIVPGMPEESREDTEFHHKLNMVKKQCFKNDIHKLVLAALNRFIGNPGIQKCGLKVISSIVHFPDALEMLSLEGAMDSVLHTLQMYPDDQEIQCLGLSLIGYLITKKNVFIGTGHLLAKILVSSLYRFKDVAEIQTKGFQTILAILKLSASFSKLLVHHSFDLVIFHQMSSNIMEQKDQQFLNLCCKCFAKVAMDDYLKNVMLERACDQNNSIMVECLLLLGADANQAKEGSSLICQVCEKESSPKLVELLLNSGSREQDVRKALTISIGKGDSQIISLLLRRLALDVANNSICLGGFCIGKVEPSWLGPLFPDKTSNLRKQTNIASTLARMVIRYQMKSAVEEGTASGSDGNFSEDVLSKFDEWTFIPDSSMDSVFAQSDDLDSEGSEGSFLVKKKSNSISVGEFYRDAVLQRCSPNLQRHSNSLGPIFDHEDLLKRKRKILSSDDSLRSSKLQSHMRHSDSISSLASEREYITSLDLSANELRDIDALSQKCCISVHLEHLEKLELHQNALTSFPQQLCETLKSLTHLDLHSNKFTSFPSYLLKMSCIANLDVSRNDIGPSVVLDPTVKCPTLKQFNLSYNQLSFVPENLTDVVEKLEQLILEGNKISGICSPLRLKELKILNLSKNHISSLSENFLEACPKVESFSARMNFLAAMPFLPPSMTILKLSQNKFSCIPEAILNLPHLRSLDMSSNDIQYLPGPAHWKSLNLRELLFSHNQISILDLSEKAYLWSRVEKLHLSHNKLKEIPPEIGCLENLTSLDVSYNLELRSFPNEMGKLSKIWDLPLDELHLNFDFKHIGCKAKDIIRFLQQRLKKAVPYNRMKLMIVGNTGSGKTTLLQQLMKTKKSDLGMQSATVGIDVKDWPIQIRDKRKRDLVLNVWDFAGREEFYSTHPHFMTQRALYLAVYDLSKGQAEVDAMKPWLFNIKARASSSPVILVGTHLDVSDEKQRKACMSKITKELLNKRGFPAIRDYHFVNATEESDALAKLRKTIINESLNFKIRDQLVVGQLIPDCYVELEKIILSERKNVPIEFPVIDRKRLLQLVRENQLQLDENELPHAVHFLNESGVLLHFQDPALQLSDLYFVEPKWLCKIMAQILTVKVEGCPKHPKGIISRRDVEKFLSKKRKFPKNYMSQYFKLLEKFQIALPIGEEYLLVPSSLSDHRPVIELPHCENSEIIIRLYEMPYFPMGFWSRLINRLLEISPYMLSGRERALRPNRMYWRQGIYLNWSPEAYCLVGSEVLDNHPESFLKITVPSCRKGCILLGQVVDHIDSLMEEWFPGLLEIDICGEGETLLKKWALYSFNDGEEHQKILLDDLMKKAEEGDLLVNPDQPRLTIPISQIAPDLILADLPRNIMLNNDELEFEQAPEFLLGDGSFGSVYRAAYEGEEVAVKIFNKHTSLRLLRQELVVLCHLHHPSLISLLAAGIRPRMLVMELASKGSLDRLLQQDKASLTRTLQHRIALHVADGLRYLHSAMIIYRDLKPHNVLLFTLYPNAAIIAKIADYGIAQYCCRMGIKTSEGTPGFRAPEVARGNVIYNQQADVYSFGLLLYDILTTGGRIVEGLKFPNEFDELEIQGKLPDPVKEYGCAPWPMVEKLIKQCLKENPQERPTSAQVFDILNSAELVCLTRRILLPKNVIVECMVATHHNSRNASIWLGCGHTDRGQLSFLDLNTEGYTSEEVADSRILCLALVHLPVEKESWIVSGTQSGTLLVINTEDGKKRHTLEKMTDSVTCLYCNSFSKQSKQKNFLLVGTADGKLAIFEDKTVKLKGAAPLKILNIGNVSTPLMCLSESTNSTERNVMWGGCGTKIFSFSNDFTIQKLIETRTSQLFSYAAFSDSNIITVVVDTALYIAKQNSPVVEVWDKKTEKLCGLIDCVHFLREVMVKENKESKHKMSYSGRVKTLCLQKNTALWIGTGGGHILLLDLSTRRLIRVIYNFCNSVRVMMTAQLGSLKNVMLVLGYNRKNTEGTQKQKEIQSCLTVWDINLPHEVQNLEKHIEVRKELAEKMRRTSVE
Flag‐tagged ROC domain of LRRK2: residues 1328-1511 of Q5S007
Flag‐tagged COR domain of LRRK2: residues 1546-1740 of Q5S007
UniProt Q5S006: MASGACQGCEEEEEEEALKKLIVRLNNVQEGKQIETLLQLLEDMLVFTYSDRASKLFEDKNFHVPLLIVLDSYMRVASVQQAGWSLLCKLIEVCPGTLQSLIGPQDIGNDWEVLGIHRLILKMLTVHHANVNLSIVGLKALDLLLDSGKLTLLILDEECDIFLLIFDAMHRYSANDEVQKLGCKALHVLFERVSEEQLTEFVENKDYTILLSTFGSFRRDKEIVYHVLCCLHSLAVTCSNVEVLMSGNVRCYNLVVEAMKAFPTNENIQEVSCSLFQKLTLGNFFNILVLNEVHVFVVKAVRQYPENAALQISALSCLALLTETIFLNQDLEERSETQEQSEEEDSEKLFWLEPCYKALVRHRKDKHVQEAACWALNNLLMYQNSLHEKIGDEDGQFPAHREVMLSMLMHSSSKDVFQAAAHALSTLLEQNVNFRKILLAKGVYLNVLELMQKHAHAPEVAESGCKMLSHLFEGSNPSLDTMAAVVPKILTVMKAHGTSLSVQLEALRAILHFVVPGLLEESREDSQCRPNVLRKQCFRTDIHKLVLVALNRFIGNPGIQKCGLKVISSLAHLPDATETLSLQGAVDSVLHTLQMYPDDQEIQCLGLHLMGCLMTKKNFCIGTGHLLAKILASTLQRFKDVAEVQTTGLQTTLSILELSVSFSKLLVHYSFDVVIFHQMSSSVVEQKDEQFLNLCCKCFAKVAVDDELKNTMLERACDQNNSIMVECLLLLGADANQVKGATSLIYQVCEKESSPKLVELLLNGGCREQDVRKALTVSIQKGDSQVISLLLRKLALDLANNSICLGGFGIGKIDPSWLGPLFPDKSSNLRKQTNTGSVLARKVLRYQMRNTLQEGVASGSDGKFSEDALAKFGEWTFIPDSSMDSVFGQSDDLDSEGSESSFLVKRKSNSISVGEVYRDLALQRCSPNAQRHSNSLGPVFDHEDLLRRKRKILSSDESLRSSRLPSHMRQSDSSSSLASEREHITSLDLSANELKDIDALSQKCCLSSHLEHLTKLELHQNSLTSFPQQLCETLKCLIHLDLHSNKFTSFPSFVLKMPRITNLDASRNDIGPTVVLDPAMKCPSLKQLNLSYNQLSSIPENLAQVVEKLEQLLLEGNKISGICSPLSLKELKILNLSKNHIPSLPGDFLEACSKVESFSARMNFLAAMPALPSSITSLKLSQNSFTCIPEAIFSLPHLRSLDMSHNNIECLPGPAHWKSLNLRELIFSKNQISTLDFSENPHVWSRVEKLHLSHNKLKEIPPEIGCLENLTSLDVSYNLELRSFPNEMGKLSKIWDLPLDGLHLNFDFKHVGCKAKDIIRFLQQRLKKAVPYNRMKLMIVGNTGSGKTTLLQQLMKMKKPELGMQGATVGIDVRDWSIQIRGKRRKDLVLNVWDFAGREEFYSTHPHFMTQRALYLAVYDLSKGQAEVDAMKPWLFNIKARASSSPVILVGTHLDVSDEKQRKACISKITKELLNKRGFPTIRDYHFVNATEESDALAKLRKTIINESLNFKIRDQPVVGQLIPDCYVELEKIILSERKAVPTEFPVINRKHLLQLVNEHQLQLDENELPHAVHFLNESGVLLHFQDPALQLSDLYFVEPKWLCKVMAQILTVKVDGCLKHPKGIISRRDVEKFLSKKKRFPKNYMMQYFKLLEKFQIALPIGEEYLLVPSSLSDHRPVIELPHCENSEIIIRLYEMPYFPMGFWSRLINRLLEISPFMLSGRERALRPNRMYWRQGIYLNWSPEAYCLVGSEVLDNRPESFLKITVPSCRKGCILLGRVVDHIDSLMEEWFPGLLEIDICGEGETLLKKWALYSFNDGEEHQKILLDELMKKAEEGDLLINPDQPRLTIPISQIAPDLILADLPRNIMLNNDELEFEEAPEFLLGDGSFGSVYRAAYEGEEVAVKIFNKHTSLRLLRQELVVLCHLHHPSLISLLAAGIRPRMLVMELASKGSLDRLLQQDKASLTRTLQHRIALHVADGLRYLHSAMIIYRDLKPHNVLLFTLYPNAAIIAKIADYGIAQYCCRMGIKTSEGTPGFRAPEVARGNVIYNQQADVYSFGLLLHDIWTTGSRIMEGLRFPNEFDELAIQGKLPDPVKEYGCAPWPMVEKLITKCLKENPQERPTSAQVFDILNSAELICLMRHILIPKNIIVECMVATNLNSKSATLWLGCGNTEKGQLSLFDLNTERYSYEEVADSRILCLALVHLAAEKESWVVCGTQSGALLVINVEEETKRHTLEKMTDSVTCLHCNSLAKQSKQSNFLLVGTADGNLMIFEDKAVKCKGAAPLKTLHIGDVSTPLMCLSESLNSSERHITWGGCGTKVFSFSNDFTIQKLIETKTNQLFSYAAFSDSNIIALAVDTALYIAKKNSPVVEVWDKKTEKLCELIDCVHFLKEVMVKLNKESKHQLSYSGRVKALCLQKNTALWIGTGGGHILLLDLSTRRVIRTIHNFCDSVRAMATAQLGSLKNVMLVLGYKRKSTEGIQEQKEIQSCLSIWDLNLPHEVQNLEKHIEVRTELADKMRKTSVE

Tests used:
[1] = biological target: human 3xFlag‐PAK6 wild type, expressed in mouse striatum from rAAV2/7 (human) (UniProt Q9NQU5); experiment: co-IP; lysates of mouse striatum injected with rAAVs encoding 3xFlag-PAK6 or 3xFlag-GFP; immunoprecipitation with anti-Flag; immunoblot with anti-Flag and anti-LRRK2 (MJFF2)
[2] = biological target: T1, cyclin G‐associated kinase (GAK) spotted on the protoarray (UniProt O14976); experiment: peptide or protein array; protoarrays probed with purified full-length LRRK2 alone, with GDP or with GppCp; Z-score of 3 (3 standard deviations from background) as cutoff for candidate interactions; both purified
T1 sequence: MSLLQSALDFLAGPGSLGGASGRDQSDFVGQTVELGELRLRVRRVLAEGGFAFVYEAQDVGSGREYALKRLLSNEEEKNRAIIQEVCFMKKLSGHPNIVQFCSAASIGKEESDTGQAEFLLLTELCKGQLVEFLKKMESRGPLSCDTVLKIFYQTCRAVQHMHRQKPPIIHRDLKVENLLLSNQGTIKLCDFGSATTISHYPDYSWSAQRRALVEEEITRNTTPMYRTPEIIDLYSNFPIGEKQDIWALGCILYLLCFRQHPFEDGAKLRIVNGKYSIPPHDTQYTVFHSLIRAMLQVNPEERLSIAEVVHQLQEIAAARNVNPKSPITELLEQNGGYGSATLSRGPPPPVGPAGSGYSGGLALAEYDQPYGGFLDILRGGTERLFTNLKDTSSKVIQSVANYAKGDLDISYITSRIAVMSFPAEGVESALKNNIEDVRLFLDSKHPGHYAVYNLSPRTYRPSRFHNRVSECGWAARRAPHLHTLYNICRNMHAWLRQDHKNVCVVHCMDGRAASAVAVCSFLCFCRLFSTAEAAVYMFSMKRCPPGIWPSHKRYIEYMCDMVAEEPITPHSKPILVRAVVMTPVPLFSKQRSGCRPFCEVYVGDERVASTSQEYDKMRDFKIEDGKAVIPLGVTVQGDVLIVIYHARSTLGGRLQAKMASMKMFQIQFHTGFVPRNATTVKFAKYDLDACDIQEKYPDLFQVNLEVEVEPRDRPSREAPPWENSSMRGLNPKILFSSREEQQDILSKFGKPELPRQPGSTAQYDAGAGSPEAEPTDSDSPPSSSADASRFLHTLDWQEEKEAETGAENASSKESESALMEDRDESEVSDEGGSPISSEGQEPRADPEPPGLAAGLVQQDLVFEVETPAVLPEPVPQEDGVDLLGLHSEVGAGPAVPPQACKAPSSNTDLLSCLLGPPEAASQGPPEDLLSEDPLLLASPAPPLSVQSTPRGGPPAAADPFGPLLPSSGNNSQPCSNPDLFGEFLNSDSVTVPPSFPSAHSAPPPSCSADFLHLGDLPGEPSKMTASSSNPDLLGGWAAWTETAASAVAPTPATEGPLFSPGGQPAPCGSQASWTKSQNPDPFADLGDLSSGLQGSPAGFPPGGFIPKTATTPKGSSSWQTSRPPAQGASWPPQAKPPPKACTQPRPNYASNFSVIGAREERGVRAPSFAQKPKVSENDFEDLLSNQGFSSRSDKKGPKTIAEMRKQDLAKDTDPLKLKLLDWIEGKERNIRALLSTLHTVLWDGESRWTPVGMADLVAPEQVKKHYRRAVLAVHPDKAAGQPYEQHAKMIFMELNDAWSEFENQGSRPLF

[3] = biological target: full‐length PAK6 spotted on the protoarray (UniProt Q9NQU5); experiment: as above
[4] = biological target: T2, PAK6 kinase domain alone, spotted on the protoarray (UniProt Q9NQU5); experiment: as above
T2 sequence: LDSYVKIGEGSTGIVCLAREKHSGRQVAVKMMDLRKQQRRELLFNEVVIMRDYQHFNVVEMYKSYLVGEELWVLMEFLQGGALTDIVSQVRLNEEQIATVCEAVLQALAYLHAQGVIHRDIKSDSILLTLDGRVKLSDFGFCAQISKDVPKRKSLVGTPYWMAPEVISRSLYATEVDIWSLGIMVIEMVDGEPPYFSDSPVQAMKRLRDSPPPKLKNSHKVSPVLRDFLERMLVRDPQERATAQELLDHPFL

[5] = biological target: PAK3 spotted on the protoarray (UniProt O75914); experiment: as above
[6] = biological target: PAK2 spotted on the protoarray (UniProt Q13177); experiment: as above
3xFlag‐LRRK2 wild type = 3xFlag‐LRRK2 wild type (UniProt Q5S007); experiment: co-IP; lysates of HEK293T cells co-transfected with Flag-LRRK2 and Myc-PAK6 or Myc-14-3-3; immunoprecipitation with anti-Flag or with anti-Myc; washes in lysis buffer (50 mM Tris pH 7.5, 1% Triton X-100) with 0.25 M NaCl; immunoblot
[7] = biological target: 2xMyc‐PAK6 (p21‐activated kinase 6) (human) (UniProt Q9NQU5); experiment: as above
[8] = biological target: endogenous LRRK2 of mouse brain (mouse (endogenous in brain)) (UniProt Q5S006); experiment: co-IP; endogenous LRRK2 immunoprecipitated with anti-LRRK2 antibody from wild-type mouse brain lysates, LRRK2 knock-out brain lysates as control; immunoblot with anti-PAK6 and anti-LRRK2
[9] = biological target: Flag‐tagged ROC domain of LRRK2 (UniProt Q5S007); experiment: co-IP; lysates of stable HEK293T cells over-expressing PAK6 and transfected with Flag-tagged full-length LRRK2 or LRRK2 fragments; immunoprecipitation with anti-Flag; immunoblot with anti-PAK6 and anti-Flag
[10] = biological target: Flag‐tagged COR domain of LRRK2 (UniProt Q5S007); experiment: as above

Molecule: endogenous LRRK2 of mouse brain (from UniProt Q5S006 1-2527)
binding [1]: binds

Molecule: purified full‐length LRRK2 (leucine‐rich repeat kinase 2), probe of the protoarrays (from UniProt Q5S007 1-2527)
binding [2]: binds
binding [3]: binds
binding [4]: no binding
binding [5]: no binding (tested: Z score below the cutoff of 3)
binding [6]: no binding (tested: Z score below the cutoff of 3)

Molecule: endogenous PAK6 of mouse brain (from UniProt Q3ULB5 1-682)
binding [8]: binds

Molecule: PAK6 wild type, over‐expressed in stable HEK293T cells (from UniProt Q9NQU5 1-681)
binding [9]: binds
binding [10]: no binding

Second part, the molecule after the results:

binding (3xFlag‐LRRK2 wild type): binds
Molecule: 2xMyc‐PAK6 (p21‐activated kinase 6) (from UniProt Q9NQU5 1-681)

binding [7]: binds
Molecule: 3xFlag‐LRRK2 wild type (from UniProt Q5S007 1-2527)

binding [8]: no binding
B1: Rab3A (protein, UniProt P63011 1-220)
chain: MASATDSRYGQKESSDQNFDYMFKILIIGNSSVGKTSFLFRYADDSFTPAFVSTVGIDFKVKTIYRNDKRIKLQIWDTAGQERYRTITTAYYRGAMGFILMYDITNEESFNAVQDWSTQIKTYSWDNAQVLLVGNKCDMEDERVVSSERGRQLADHLGFEFFEASAKDNINVKQTFERLVDVICEKMSESLDTADPAVTGAKQGPQLTDQQAPPHQDCAC
